From paper PMC9925369

Protein sequences, listed by entry. Tags and fused reporters are not part of them.
UniProt Q9UH17: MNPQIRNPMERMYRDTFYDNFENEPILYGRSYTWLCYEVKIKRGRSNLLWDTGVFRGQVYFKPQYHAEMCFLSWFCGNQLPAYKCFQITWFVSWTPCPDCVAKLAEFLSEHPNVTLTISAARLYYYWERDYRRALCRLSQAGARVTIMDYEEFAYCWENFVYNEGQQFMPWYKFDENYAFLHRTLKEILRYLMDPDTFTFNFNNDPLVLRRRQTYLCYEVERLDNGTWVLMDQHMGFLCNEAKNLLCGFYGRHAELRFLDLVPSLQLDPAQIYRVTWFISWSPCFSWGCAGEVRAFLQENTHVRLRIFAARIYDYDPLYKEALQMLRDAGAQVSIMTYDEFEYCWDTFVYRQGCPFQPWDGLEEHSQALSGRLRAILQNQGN
UniProt P11940: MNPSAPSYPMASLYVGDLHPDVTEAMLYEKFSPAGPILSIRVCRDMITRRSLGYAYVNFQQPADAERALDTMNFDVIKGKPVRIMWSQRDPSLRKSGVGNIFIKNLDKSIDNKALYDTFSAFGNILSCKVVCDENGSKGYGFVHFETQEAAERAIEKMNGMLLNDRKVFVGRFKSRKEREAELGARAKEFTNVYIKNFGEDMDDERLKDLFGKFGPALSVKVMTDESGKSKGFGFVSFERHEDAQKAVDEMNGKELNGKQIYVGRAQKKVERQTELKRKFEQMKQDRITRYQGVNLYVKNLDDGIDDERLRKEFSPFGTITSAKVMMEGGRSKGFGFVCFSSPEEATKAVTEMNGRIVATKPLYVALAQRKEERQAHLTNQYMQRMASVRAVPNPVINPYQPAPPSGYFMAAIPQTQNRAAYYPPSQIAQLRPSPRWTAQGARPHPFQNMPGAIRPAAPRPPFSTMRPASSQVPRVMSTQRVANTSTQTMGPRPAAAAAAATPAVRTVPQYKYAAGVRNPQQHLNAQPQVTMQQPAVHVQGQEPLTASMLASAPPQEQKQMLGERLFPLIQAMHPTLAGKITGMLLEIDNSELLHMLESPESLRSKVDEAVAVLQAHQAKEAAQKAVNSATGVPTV
UniProt O00571: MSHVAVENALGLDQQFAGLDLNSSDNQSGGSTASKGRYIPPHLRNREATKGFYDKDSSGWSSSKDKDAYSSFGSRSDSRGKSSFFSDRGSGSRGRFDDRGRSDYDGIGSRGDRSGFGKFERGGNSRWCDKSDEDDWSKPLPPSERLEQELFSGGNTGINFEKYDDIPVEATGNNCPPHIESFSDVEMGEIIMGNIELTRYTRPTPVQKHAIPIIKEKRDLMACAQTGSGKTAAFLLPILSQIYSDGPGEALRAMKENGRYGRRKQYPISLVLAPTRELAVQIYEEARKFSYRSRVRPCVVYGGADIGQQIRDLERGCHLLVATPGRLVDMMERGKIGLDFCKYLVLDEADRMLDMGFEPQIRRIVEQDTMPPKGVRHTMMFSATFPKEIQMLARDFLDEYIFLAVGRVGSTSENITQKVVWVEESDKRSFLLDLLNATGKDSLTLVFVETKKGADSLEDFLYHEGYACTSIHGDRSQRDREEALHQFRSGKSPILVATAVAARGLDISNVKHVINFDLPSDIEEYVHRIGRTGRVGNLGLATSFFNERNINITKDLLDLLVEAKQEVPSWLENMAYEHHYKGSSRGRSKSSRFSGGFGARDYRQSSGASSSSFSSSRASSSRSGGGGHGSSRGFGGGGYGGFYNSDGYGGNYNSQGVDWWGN

The molecules below were run against APOBEC3B-GFP/Flag (human) (UniProt Q9UH17) (assay: affinity purification with mass spectrometry; HEK-293T transfected with the bait; lysate treated with RNase A and Benzonase; anti-Flag M2 gel, elution with 3X-Flag peptide, then GFP-Trap beads; washes with 250 mM NaCl; SDS-PAGE bands analysed by LC-MS/MS).

binding | Molecule
binds | PABPC1 (from UniProt P11940 1-636)
binds | DDX3 (from UniProt O00571 1-662)
binds | MATR3 (protein, UniProt P43243 1-847) MSKSFQQSSLSRDSQGHGRDLSAAGIGLLAAATQSLSMPASLGRMNQGTARLASLMNLGMSSSLNQQGAHSALSSASTSSHNLQSIFNIGSRGPLPLSSQHRGDADQASNILASFGLSARDLDELSRYPEDKITPENLPQILLQLKRRRTEEGPTLSYGRDGRSATREPPYRVPRDDWEEKRHFRRDSFDDRGPSLNPVLDYDHGSRSQESGYYDRMDYEDDRLRDGERCRDDSFFGETSHNYHKFDSEYERMGRGPGPLQERSLFEKKRGAPPSSNIEDFHGLLPKGYPHLCSICDLPVHSNKEWSQHINGASHSRRCQLLLEIYPEWNPDNDTGHTMGDPFMLQQSTNPAPGILGPPPPSFHLGGPAVGPRGNLGAGNGNLQGPRHMQKGRVETSRVVHIMDFQRGKNLRYQLLQLVEPFGVISNHLILNKINEAFIEMATTEDAQAAVDYYTTTPALVFGKPVRVHLSQKYKRIKKPEGKPDQKFDQKQELGRVIHLSNLPHSGYSDSAVLKLAEPYGKIKNYILMRMKSQAFIEMETREDAMAMVDHCLKKALWFQGRCVKVDLSEKYKKLVLRIPNRGIDLLKKDKSRKRSYSPDGKESPSDKKSKTDGSQKTESSTEGKEQEEKSGEDGEKDTKDDQTEQEPNMLLESEDELLVDEEEAAALLESGSSVGDETDLANLGDVASDGKKEPSDKAVKKDGSASAAAKKKLKKVDKIEELDQENEAALENGIKNEENTEPGAESSENADDPNKDTSENADGQSDENKDDYTIPDEYRIGPYQPNVPVGIDYVIPKTGFYCKLCSLFYTNEEVAKNTHCSSLPHYQKLKKFLNKLAEERRQKKET

These are yes or no findings as the source states them, for the method shown. In cells and extracts the contact can be indirect. These calls come from enrichment with a bait or labelling near it, and not all partners need be listed.
